From US20090298894A1, “AMINO ACID COMPOUNDS” (Asahi Kasei Pharma Corporation, priority 2008, published 2009)
Some entries share one result that the patent states for a list of compounds. For at least one compound, name, drawing or mass did not settle the structure.

Protein sequences, listed by entry. Tags and fused reporters are not part of them. Lines headed by an entry give the natural chain unless they say otherwise; changes in a name come on top.
UniProt P21453, whole entry: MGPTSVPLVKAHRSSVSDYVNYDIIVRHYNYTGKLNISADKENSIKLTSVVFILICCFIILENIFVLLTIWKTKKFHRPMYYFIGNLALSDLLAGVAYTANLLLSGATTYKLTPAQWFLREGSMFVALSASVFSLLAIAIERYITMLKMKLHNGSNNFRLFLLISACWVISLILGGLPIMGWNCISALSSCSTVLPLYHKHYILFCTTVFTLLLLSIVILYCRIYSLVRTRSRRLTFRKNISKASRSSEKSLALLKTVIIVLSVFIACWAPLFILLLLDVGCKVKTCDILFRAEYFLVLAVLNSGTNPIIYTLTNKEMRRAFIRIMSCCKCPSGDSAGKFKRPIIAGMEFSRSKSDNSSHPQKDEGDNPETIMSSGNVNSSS
UniProt Q99500: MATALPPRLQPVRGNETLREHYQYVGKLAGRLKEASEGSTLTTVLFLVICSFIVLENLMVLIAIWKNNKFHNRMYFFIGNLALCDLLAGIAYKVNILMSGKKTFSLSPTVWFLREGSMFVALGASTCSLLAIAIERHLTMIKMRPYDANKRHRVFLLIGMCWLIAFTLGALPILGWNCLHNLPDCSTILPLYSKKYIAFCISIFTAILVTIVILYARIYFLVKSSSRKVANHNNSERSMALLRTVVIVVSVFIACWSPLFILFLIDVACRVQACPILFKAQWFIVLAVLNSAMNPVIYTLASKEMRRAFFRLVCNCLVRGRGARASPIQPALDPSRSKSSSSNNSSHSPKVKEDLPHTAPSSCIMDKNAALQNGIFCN

Experiments:
human S1P1 = biological target: T1, human S1P1 (Homo sapiens, UniProt P21453); assay: 35S-GTPγS binding assay using a membrane prepared from CHO cells which stably express S1P1 receptor; format: biochemical; details: CHO cell membrane fraction stably expressing human S1P1, read-out: EC50 (concentration of agonist required to give 50% of its own maximum increase ratio), human S1P1
T1 construct: expressed in transfected cells
Experimental: ^35S-GTPγS Binding Assay Using a Membrane Prepared from CHO Cells Which Stably Express S1P1 Receptor
Functional activation of human S1P1 by the compounds was determined based on quantification of ^35S-GTPγS binding to G protein due to the receptor activation, by using a cell membrane fraction prepared from CHO cells in which human S1P1 are stably expressed. As for human S1P1, the above described human S1P1 was used. Membrane proteins as prepared and various concentrations of sphingosine-1-phosphate or the compounds diluted in a solvent such as DMSO were incubated in a solution comprising 20 mM Tris-Cl (pH 7.5), 100 mM NaCl, 10 mM MgCl2, […] (Upstate), 0.1% BSA (fatty acid free, Sigma) and 25 pM ^35S-GTPγS (specific activity 1250 Ci/mmol) in 96 well microtiter plates. […] After drying the harvest plates at least for 12 hours, 25 μl of MicroScint-O (Perkin Elmer) was added to each well and radioactivity was measured using a Top Counter.
Having the value measured for the well to which a solvent has been added as a control value, the agonist activity of the compounds was determined by comparing the increase in the well to which a test compound has been added to the control value, and therefore an increase ratio for each concentration of the compounds was obtained. […]

human S1P3 = biological target: T2, human S1P3 (Homo sapiens, UniProt Q99500); assay: 35S-GTPγS binding assay using a membrane prepared from CHO cells which stably express human S1P3; format: biochemical; details: CHO cell membrane stably expressing human S1P3, read-out: EC50 (concentration of agonist required to give 50% of its own maximum increase ratio), human S1P3
T2 construct: expressed in transfected cells

peripheral lymphocytes = assay: Evaluation of peripheral blood lymphocyte reduction; format: in vivo; details: rat, orally administered, six hours after the administration
Experimental: Evaluation of Peripheral Blood Lymphocyte Reduction
The compound or a solvent is orally administered to a rat. 3, 6, 24, 48 or 72 hours after the administration of the compounds, blood is drawn from the rat tail. Hematological testis carried out for the whole blood sample. Using an automated analyzer (Sysmex 2000Xi), total number of peripheral lymphocytes is obtained. By having at least three animals per group, activity of the compound on the total number of peripheral lymphocytes was evaluated. Lymphocyte reduction caused by the compound administration was evaluated via comparison with an animal group which had received the solvent only. Specifically, average number of the lymphocytes for the solvent administered group was taken as 100%, and from average number of the lymphocytes for the compound administered group, control % value was calculated. Further, in view of the dosage of the compound and the dosage of the compound that is required to reduce number of lymphocytes by 50% six hours after the administration compared to the control % value was calculated as ED50.

Cc1cc(-c2nc(-c3ccc4c(c3)CCC4N[C@H]3C[C@H](C(=O)O)C3)no2)ccc1-c1ccccc1.Cl (stereo partly drawn) [Example 1, 1,3-Trans-3-(5-(5-(2-methylbiphenyl-4-yl)-1,2,4-oxadiazol-3-yl)-2,3-dihydro-1H-inden-1-ylamino)cyclobutanecarboxylic acid hydrochloride salt]
EC50 (human S1P1): < 10 nM
EC50 (human S1P3): ≥ 1000 nM
ED50 (dosage required to reduce number of lymphocytes by 50%) (peripheral lymphocytes): less than 1 mg/kg
